Results reported in the supplement of paper PMC10849652.
The list shows a part of the results.

Amino acid sequences for entries named in this document (tags omitted). A change or cut given only in a name is not applied to a line headed by its entry.
UniProt P51692: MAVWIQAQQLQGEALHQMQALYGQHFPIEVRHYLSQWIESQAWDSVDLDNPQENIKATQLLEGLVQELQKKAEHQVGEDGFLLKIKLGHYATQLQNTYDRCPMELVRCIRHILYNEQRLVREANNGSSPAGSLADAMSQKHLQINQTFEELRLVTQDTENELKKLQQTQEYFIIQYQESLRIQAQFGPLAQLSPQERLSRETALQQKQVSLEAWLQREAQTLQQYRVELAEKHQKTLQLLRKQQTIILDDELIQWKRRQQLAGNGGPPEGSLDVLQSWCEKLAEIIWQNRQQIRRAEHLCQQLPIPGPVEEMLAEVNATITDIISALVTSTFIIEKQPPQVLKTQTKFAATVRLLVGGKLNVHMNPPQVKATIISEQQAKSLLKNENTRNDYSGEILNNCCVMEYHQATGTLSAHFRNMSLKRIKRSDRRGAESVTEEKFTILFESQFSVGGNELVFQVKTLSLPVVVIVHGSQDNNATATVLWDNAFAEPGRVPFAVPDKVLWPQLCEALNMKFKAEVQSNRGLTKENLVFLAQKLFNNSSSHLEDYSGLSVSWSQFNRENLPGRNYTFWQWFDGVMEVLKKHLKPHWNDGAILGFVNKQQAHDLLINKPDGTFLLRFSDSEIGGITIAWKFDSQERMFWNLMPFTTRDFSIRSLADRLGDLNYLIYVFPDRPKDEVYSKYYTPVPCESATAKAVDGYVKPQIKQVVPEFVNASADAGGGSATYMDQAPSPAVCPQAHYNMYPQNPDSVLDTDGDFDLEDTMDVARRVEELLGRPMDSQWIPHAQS
UniProt P61011: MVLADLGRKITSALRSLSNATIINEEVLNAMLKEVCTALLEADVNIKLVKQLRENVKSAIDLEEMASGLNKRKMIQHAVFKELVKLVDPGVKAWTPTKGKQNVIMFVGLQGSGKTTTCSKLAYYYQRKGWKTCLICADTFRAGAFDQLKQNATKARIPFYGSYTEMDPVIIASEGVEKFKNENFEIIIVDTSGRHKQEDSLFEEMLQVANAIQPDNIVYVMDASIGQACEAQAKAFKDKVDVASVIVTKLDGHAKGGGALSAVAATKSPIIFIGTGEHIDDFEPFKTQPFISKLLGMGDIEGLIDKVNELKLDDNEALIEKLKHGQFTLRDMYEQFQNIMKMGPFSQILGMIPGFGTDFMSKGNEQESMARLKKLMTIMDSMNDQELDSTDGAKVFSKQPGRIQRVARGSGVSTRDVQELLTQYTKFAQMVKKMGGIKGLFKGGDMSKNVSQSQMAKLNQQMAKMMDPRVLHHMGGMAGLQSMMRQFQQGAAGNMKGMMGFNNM
UniProt P35270: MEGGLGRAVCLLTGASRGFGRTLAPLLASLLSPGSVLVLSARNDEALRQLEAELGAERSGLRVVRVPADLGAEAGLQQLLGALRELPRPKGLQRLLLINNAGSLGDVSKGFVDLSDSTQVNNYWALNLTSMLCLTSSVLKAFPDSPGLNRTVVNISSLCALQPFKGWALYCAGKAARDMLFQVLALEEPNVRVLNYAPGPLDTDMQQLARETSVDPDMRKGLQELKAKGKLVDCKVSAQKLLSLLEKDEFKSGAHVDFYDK
UniProt P61009: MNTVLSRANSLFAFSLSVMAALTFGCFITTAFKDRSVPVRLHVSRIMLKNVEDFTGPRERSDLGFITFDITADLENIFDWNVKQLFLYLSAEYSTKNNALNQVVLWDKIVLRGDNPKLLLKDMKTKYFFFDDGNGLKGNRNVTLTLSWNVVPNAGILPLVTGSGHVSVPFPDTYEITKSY
UniProt Q9C004: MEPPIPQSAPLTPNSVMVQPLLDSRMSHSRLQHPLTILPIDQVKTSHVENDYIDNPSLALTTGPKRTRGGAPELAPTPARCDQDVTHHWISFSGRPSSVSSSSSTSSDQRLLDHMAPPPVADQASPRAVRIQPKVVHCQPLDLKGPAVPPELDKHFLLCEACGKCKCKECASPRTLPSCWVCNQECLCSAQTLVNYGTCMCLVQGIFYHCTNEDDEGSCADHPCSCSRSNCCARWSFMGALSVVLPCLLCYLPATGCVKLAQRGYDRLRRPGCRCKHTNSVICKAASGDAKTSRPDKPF
UniProt Q13247: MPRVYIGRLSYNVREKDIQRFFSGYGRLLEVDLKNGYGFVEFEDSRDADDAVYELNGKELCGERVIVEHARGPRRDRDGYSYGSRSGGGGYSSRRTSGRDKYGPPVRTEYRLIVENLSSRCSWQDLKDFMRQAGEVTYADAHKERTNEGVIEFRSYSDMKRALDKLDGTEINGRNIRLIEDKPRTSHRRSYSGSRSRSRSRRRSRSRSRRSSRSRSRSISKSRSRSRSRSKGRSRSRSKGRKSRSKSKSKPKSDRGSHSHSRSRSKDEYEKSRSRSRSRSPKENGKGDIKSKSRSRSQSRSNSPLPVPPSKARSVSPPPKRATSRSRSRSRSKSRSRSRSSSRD
UniProt Q8N3U4: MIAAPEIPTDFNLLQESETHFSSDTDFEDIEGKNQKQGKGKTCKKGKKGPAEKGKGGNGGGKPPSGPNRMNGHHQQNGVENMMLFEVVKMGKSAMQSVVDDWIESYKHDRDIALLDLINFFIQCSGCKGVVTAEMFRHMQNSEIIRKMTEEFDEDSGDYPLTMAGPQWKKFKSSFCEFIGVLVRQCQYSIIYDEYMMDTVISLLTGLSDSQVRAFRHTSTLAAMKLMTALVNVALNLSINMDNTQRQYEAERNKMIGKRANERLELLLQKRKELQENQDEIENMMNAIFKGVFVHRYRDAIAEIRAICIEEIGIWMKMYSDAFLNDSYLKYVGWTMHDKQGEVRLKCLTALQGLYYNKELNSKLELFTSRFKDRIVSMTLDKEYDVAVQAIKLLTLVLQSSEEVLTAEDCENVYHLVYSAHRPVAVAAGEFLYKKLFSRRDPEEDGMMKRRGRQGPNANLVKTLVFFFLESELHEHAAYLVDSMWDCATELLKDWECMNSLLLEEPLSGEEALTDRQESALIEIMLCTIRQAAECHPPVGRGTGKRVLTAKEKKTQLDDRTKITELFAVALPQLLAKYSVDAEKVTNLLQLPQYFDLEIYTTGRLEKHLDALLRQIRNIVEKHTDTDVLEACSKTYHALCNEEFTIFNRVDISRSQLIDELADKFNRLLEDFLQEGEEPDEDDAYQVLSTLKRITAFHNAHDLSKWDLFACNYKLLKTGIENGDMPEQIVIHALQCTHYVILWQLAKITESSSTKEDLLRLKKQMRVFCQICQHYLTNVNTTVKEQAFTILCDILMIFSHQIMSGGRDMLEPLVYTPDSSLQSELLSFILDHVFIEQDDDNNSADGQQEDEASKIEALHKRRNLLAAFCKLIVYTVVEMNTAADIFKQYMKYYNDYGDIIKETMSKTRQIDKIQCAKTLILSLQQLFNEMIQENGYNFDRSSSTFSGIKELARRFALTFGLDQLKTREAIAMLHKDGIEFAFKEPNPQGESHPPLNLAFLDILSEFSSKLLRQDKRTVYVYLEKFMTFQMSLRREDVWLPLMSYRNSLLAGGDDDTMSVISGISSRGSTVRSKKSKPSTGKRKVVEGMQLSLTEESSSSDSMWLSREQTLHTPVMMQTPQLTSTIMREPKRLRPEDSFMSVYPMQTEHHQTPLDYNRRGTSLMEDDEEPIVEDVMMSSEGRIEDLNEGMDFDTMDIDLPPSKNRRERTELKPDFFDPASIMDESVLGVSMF
UniProt Q9UHB9: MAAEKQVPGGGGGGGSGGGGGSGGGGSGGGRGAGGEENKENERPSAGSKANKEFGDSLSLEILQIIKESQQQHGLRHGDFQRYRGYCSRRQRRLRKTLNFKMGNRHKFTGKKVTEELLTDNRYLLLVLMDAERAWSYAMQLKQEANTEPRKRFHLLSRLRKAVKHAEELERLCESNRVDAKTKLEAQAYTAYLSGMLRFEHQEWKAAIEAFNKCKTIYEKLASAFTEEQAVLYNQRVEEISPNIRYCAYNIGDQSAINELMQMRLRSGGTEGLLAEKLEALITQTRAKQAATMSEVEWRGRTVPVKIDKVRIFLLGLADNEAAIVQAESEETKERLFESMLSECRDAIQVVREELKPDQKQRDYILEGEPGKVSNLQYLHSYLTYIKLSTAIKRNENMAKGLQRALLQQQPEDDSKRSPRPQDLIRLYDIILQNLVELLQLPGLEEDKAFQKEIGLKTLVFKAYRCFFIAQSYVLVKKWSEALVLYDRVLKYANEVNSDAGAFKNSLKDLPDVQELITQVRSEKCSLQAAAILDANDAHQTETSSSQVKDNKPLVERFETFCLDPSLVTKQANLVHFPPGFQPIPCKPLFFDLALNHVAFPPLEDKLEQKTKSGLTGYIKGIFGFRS
UniProt P42229: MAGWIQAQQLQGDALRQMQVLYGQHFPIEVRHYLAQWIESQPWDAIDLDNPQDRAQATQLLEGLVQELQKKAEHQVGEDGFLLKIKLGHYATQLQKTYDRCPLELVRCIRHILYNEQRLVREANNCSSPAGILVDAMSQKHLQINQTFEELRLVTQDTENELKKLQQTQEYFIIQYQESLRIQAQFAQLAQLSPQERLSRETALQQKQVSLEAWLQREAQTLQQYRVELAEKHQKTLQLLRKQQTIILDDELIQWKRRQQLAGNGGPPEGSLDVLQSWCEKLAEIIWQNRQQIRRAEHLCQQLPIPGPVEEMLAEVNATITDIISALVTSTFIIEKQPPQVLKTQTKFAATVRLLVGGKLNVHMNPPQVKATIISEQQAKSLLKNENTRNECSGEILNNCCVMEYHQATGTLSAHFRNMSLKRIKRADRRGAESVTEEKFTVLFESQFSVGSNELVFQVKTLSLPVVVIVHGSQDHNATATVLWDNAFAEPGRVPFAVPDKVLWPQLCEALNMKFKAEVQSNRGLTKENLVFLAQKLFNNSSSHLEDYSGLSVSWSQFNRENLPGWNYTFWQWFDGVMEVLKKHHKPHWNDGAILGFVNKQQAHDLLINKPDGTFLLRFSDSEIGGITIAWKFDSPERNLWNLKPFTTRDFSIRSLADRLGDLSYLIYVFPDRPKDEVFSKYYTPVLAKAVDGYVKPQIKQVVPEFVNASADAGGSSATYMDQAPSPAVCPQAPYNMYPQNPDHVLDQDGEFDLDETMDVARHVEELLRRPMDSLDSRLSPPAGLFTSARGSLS
UniProt P30626: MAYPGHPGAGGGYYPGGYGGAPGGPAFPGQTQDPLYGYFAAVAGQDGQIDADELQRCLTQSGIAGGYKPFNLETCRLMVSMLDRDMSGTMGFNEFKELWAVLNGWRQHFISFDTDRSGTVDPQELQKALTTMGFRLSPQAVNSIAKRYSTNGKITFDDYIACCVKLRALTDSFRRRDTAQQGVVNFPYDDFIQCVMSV
UniProt Q8NEF9: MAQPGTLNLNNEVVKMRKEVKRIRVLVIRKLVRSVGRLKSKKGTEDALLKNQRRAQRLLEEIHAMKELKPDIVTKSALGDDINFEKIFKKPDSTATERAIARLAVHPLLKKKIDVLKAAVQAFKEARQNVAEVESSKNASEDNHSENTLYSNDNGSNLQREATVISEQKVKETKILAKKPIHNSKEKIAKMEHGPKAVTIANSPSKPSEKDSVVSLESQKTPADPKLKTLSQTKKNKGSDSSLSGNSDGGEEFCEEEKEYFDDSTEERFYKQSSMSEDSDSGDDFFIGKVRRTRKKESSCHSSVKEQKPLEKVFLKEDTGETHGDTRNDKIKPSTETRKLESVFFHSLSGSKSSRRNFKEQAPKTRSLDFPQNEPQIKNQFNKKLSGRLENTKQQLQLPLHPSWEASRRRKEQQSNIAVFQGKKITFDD
UniProt Q8N0X7: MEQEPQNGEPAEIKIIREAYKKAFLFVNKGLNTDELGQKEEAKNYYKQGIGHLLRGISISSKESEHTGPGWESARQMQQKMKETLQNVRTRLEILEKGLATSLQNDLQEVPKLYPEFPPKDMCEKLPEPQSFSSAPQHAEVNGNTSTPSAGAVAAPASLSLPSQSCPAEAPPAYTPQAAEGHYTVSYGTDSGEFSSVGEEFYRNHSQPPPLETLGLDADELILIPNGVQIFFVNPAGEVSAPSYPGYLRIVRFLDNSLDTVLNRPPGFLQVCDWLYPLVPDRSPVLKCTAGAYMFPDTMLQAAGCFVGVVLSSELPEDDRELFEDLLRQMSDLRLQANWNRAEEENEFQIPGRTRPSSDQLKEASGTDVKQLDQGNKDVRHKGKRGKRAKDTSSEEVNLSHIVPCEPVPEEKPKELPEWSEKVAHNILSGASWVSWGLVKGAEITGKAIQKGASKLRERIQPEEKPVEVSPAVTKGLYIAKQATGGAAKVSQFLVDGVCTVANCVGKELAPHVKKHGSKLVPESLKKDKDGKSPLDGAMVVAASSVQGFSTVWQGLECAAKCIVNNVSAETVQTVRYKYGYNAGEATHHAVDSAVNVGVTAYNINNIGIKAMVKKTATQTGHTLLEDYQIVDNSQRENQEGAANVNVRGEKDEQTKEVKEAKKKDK
UniProt Q9Y5M8: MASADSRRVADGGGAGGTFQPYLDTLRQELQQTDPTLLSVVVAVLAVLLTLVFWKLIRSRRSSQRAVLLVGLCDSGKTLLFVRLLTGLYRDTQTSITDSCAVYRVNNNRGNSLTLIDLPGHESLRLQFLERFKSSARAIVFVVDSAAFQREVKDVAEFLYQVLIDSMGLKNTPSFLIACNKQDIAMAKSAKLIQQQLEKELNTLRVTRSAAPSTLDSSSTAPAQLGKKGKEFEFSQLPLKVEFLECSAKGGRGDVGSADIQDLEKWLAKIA

Columns and labels:
Experiment in all cases: log2 fold change, soluble protein after heating vs DMSO (PISA); higher = thermal stabilisation; K562 cells, 10 uM, 30 min; active = over 0.2 and 3.5 SD of the protein, either way, in both replicates (recomputed)
[1] = compound: CC[C@@H]1C(=O)N(C)c2cnc(Nc3ccc(C(=O)NC4CCN(C)CC4)cc3OC)nc2N1C1CCCC1
Outline: (§1)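 Values are thermal stability changes relative to control samples and are taken from duplicates. They are stated as log2 fold changes. Before quantification by TMTpro 16plex LC-MS/MS with equalised channel sums, K562 cells at 2×10^6 cells/mL were treated with 10 μM compound for 30 min, heated in aliquots for 3 min across 48°C-58°C, pooled, extracted in PBS with 0.5% NP-40 at 4°C, and centrifuged at 21,000xg for 90 min to give the soluble supernatant.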

volasertib = compound: CC[C@@H]1C(=O)N(C)c2cnc(Nc3ccc(C(=O)N[C@H]4CC[C@H](N5CCN(CC6CC6)CC5)CC4)cc3OC)nc2N1C(C)C [volasertib]
Outline: as §1

[2] = compound: CC[C@H](C)N1C=C(C2=C(C=C(C=C21)C3=CN=C(C=C3)N4CCNCC4)C(=O)NCC5=C(C=C(NC5=O)C)C)C
Outline: as §1

epoxomicin = compound: CC[C@H](C)[C@@H](C(=O)N[C@@H]([C@@H](C)O)C(=O)N[C@@H](CC(C)C)C(=O)[C@]1(CO1)C)NC(=O)[C@H]([C@@H](C)CC)N(C)C(=O)C [epoxomicin]
Outline: as §1

[3] = compound: CCn1cc(-c2ccnc3[nH]c(-c4cccc(CN(C)C)c4)cc23)c(-c2ccc(NC(=O)N(C)C)cc2)n1
Outline: as §1

[4] = compound: CN(C)CC(=O)Nc1ccc2[nH]c(=O)c3ccccc3c2c1
Outline: as §1

[5] = compound: CN1C2=C(C3=C1C(=O)N(N=C3)CC4=CC(=CC=C4)N)SC(=C2)S(=O)C
Outline: as §1

[6] = compound: CN1CCC(CNc2ccc3ncc(-c4cccc(OC(F)(F)F)c4)n3n2)CC1
Outline: as §1

[7] = compound: CCn1c(C(=O)N(C2CC2)C2CC2)cc2c3c(ncn3C)c(Nc3cc(C)n(C)n3)nc21
Outline: as §1

rosiglitazone = compound: CN(CCOC1=CC=C(C=C1)C[C@H]2C(=O)NC(=O)S2)C3=CC=CC=N3 (racemic) [rosiglitazone]
Outline: as §1

Target | log2 fold change [1] | log2 fold change (volasertib) | log2 fold change [2] | log2 fold change (epoxomicin) | log2 fold change [3] | log2 fold change [4] | log2 fold change [5] | log2 fold change [6] | log2 fold change [7] | log2 fold change (rosiglitazone)
STAT5B (UniProt P51692) | inactive: -0.221 | inactive: -0.333 | inactive: 0.36 | inactive: 0.004 | inactive: 0.052 | inactive: 0.105 | inactive: -0.063 | inactive: -0.045 |  | 
SRP54 (UniProt P61011) | inactive: -0.07 | inactive: -0.177 | inactive: 0.06 | inactive: 0.025 | inactive: -0.039 | inactive: 0.035 | inactive: -0.03 | inactive: -0.089 | inactive: -0.038 | inactive: 0.031
SPR (UniProt P35270) | inactive: 0.02 | inactive: 0.165 | inactive: 0.013 | inactive: -0.054 | inactive: 0.073 | inactive: 0.153 | inactive: -0.184 | inactive: 0.012 | active: 0.412 | 
SRR (UniProt Q9GZT4) | inactive: -0.078 | inactive: -0.135 | inactive: 0.01 | inactive: 0.021 | inactive: 0.063 | inactive: -0.031 | inactive: -0.016 | inactive: 0 | inactive: -0.044 | inactive: -0.038
SRRM2 (UniProt Q9UQ35) | inactive: -0.025 | inactive: 0.009 | inactive: 0.046 | inactive: -0.071 | inactive: -0.072 | inactive: 0.053 | inactive: 0.062 | inactive: -0.222 |  | 
SPCS3 (UniProt P61009) | inactive: 0.012 | inactive: 0.04 | inactive: 0.044 | inactive: -0.058 | inactive: 0.036 | inactive: -0.003 | inactive: 0.021 | inactive: 0.087 | inactive: 0.002 | inactive: -0.002
STAG1 (UniProt Q8WVM7) | inactive: -0.041 | inactive: -0.162 | inactive: 0.028 | inactive: 0.062 | inactive: 0.026 | inactive: -0.005 | inactive: -0.078 | inactive: -0.039 | inactive: -0.023 | inactive: -0.014
ST6GALNAC1 (UniProt Q9NSC7) | inactive: -0.108 | inactive: 0.01 | inactive: -0.07 | inactive: -0.001 |  | inactive: -0.02 | inactive: 0.004 |  | inactive: 0.059 | inactive: 0.059
ST7 (UniProt Q9NRC1) | inactive: 0.055 | inactive: -0.121 | inactive: -0.015 | inactive: 0.025 | inactive: -0.061 | inactive: 0.029 | inactive: 0.045 | inactive: -0.11 | inactive: -0.017 | inactive: 0.017
SRPK2 isoform 2 (UniProt P78362) | inactive: 0.117 | inactive: 0.433 | inactive: 0.026 | inactive: -0.338 | inactive: 0.217 | inactive: -0.162 | inactive: 0.354 | inactive: 0.263 | inactive: -0.021 | inactive: -0.075
SPRY4 (UniProt Q9C004) | inactive: 0.008 | inactive: -0.036 | inactive: -0.04 | inactive: 0.031 | inactive: -0.015 | inactive: -0.042 | inactive: -0.025 | inactive: 0.063 | inactive: 0.016 | inactive: 0.016
SRSF6 (UniProt Q13247) | inactive: 0.011 | inactive: 0.174 | inactive: 0.116 | inactive: -0.181 | inactive: 0.028 | inactive: -0.08 | inactive: 0.207 | inactive: 0.315 |  | 
STAG2 (UniProt Q8N3U4) | inactive: -0.011 | inactive: -0.126 | inactive: 0.024 | inactive: 0.006 | inactive: -0.004 | inactive: -0.001 | inactive: -0.046 | inactive: -0.107 | inactive: -0.002 | inactive: -0.016
SS18 (UniProt Q15532) | inactive: 0.019 | inactive: -0.217 | inactive: 0.171 |  | inactive: -0.165 | inactive: 0.001 | inactive: -0.087 | inactive: 0.187 | inactive: -0.003 | inactive: 0.1
SRP68 (UniProt Q9UHB9) | inactive: -0.077 | active: -0.487 | inactive: 0.079 | inactive: 0.094 | inactive: -0.024 | inactive: 0.019 | inactive: 0.133 | inactive: -0.18 |  | 
STAT5A (UniProt P42229) | inactive: -0.225 | active: -0.633 | inactive: 0.121 | inactive: 0.072 | inactive: 0.041 | inactive: 0.074 | inactive: -0.005 | inactive: -0.109 |  | 
SRI (UniProt P30626) | inactive: 0.008 | inactive: -0.111 | inactive: -0.013 | active: 0.393 | inactive: -0.058 | inactive: 0.009 | inactive: -0.071 | inactive: 0.126 |  | 
STAT6 (UniProt P42226) | inactive: -0.196 | active: -0.594 | inactive: -0.02 | inactive: -0.074 | inactive: 0.1 | inactive: 0.093 | inactive: 0.018 | inactive: -0.11 |  | 
SREK1 isoform 2 (UniProt Q8WXA9) | inactive: -0.122 | inactive: -0.22 | inactive: 0.037 | inactive: -0.021 | inactive: -0.098 | inactive: -0.029 | inactive: 0.026 | inactive: -0.035 |  | 
SRFBP1 (UniProt Q8NEF9) | inactive: 0.208 | inactive: 0.157 | inactive: -0.094 | inactive: -0.047 | inactive: 0.049 |  | inactive: 0.117 | inactive: 0.277 |  | 
SRSF3 (UniProt P84103) | inactive: 0.198 | inactive: 0.313 | inactive: -0.075 | inactive: -0.213 | inactive: 0.189 | inactive: -0.139 | inactive: 0.18 | inactive: 0.233 |  | 
SPTBN1 (UniProt Q01082) | inactive: 0.009 | inactive: -0.163 | inactive: 0.079 | inactive: -0.024 | inactive: 0.013 | inactive: 0.018 | inactive: 0.081 | inactive: 0.048 |  | 
SPTBN4 (UniProt Q9H254) | inactive: 0.051 | inactive: -0.293 | inactive: -0.025 | inactive: -0.018 | inactive: -0.1 | inactive: 0.171 | inactive: 0.011 | inactive: 0.153 |  | 
SPG21 (UniProt Q9NZD8) | inactive: -0.082 | active: -0.615 | inactive: 0.065 | active: 0.315 | inactive: 0.037 | inactive: 0.018 | inactive: -0.098 | inactive: -0.21 |  | 
SPART (UniProt Q8N0X7) | inactive: -0.031 | active: -0.224 | inactive: -0.005 | inactive: -0.123 | inactive: 0.014 | inactive: 0.069 | inactive: -0.035 | inactive: -0.052 |  | 
SRPRB (UniProt Q9Y5M8) | inactive: -0.141 | inactive: -0.048 | inactive: 0.031 | inactive: 0.1 | inactive: -0.134 | inactive: 0.042 | inactive: -0.05 | inactive: 0.051 |  | 

Taken from the results shown for reference:
Target | log2 fold change [1] | log2 fold change (volasertib) | log2 fold change [2] | log2 fold change (epoxomicin) | log2 fold change [3] | log2 fold change [4] | log2 fold change [5] | log2 fold change [6] | log2 fold change [7] | log2 fold change (rosiglitazone)
ST7 (UniProt Q9NRC1) | inactive: 0.055 | inactive: -0.121 | inactive: -0.015 | inactive: 0.025 | inactive: -0.061 | inactive: 0.029 | inactive: 0.045 | inactive: -0.11 | inactive: -0.017 | inactive: 0.017
SRPK2 isoform 2 (UniProt P78362) | inactive: 0.117 | inactive: 0.433 | inactive: 0.026 | inactive: -0.338 | inactive: 0.217 | inactive: -0.162 | inactive: 0.354 | inactive: 0.263 | inactive: -0.021 | inactive: -0.075
